Laboratory results published in PubChem BioAssay AID1347075 (National Center for Advancing Translational Sciences (NCATS), 2019).
Out of some 400,000 compounds screened, about 5,500 (1.4%) were called active. The inconclusive results got no clear call from the source; some entries with a clear call stand among them for comparison. Calls come from the whole dose curve; as a rule, active = well fitted cell-killing curve with a large enough effect; inconclusive = small, poorly fitted or top-dose-only effect, or effect the other way; inactive = flat fitted curve, though single readings scatter. Potencies beside an inconclusive call are fits to weak or partial responses and may not hold up.

Experiment: qHTS assay for MDR1-selective chemotherapeutics: Primary screen using the parental adenocarcinoma cell KB-3-1; note: nearly all actives have a fitted effect of over 60% in size
Settings: KB-3-1 viability, CellTiter-Glo ATP luminescence, 72 h; activity change, negative = cytotoxic: at 46.1 µM (top of the series)
Summary of the method: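 Cytotoxicity measured as CellTiter-Glo luminescence after 72 h at 37 C. Compound titrations were pinned onto drug-naive KB-3-1 parental adenocarcinoma cells grown in DMEM with 10% FBS, and normalized data fitted to concentration-response curves.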
% is set by controls: 0 for no effect and ±100 for the full control effect; potency is the fitted concentration of half-maximal effect.

Row | SMILES | Potency | activity change, negative = cytotoxic
1 | Cc1ccc(/C=N/NC(=O)c2sccc2OCc2ccc(F)cc2)cc1 | inconclusive: 14.6 µM [cytotoxic, partial curve, poor fit] | –
2 | CCCN(CC1CC1)C(=S)Nc1ccc(Oc2ccccc2)cc1 | inconclusive: 29.1 µM [cytotoxic, single point] | –
3 | COc1ccc(C2c3cc4c(cc3OC(N3CCOCC3)C2C)OCO4)c(OC)c1 (stereo not drawn) | active: 4.61 µM | –
4 | O=[N+]([O-])c1c(Nc2ccccc2O)cc(Cl)c2nonc12 | inconclusive: 16.4 µM [cytotoxic, single point] | –
5 | Cc1ccc(CSCc2ccc(C(=O)NC3CCCC3)o2)cc1 | – | inactive: 20.4%
6 | Cc1cccc(C(=O)NNC(=O)c2ccc(-c3ccccc3)cc2)c1 | – | inactive: 0.786%
7 | CC(=O)n1cc(/C=N/NC(=O)c2sc(C)nc2C)c2ccccc21 | inconclusive: 25.9 µM [cytotoxic, single point] | –
8 | Cc1c(NC(=O)CN2C(=O)NC(C)(c3ccc4c(c3)OCCO4)C2=O)c(=O)n(-c2ccccc2)n1C (stereo not drawn) | – | inactive: -0.0717%
9 | CN(C)c1cc[n+](CC(=O)Nc2ccc(OC(F)F)cc2)cc1 | active: 4.11 µM | –
10 | CCOC(=O)c1c(NC(=O)c2cc3ccccc3c(=O)o2)sc2c1CCC(C(C)(C)C)C2 (stereo not drawn) | – | inactive: 7.42%
11 | Cc1ccc(S(=O)(=O)Nc2cccc(C(=O)NCC(c3ccco3)N3CCCC3)c2)cc1F (stereo not drawn) | inconclusive: 29.1 µM [cytotoxic, partial curve, poor fit] | –
12 | Cc1ccc(Nc2nc(C)c(NC(=O)c3ccc(C)cc3)c(Nc3ccc(C)cc3)n2)cc1 | inconclusive: 29.1 µM [cytotoxic, single point] | –
13 | O=S(=O)(c1ccc(Cl)c(C(F)(F)F)c1)N1CCN(c2ccccn2)CC1 | – | inactive: -3.61%
14 | O=C(CSc1ccc(Cl)cc1)Nc1ccccc1N1CCN(C(=O)c2ccccc2)CC1 | inconclusive: 29.1 µM [cytotoxic, single point] | –
15 | O=C(Cn1cccn1)N1CCCC(N2CCN(c3ccccc3F)CC2)C1 (stereo not drawn) | – | inactive: 5.54%
16 | Cn1c(=O)n(C)c2cc(NS(=O)(=O)c3ccc(C(C)(C)C)cc3)c(NCc3ccccc3)cc21 | inconclusive: 10.3 µM [cytotoxic, partial curve] | –
17 | COC(=O)c1ccc(/C=C/c2c(-c3ccc(OC)cc3)oc3ccccc23)cc1 | – | inactive: 2.49%
18 | Cc1ccc(CNC(=O)CN2C(C)CCCC2C)cc1 (stereo not drawn) | inconclusive: 0.0092 µM [rising, full curve] | –
19 | CCN1c2ccccc2-c2nc(SCC(=O)Nc3cc(F)ccc3F)ncc2S1(=O)=O | inconclusive: 16.4 µM [cytotoxic, partial curve, poor fit] | –
20 | Brc1ccc(-n2cc(-c3ccccc3)c3c(NN4CCOCC4)ncnc32)cc1 | inconclusive: 29.1 µM [cytotoxic, single point] | –
21 | Cc1ccc(S(=O)(=O)N2CCN(c3nc(C)c4c(c3C#N)CC(C)(C)OC4)CC2)cc1 | inconclusive: 18.4 µM [cytotoxic, single point] | –
22 | Cc1ccc(Cc2c(-c3ccc(C)cc3)nc3cc(C)ccn23)cc1 | inconclusive: 25.9 µM [cytotoxic, partial curve, poor fit] | –

Row | SMILES | Potency | activity change, negative = cytotoxic
23 | CCOP(=O)(OCC)C(C)(C)NC(=O)Nc1ccc(Cl)c(Cl)c1 | inconclusive: 29.1 µM [cytotoxic, single point] | –
24 | COc1cc(NC(=O)CCNC(=O)Cn2cnc3ccccc3c2=O)cc(OC)c1OC | inconclusive: 29.1 µM [rising, single point] | –
25 | CCCCC(=O)Nc1nc(C)c(-c2csc(Nc3ccccc3OC)n2)s1 | inconclusive: 29.1 µM [cytotoxic, single point] | –
26 | CCCc1cc(N2CCN(c3ccc(OC)cc3)CC2)n2cnnc2n1 | inconclusive: 32.6 µM [cytotoxic, single point] | –
27 | COc1ccc(CCn2c(=O)c3cccnc3n(CC(=O)Nc3c(C)cc(C)cc3C)c2=O)cc1OC | – | inactive: 3.33%
28 | COCCCNC(=O)c1cccc2c(-c3cccc(C(N)=O)c3)coc12 | inconclusive: 29.1 µM [cytotoxic, single point] | –
29 | COCOCCn1cc(CN2CCS(=O)(=O)N(Cc3ccc(-c4ccc(Cl)cc4)cc3)C(CC(C)C)C2=O)nn1 (stereo not drawn) | inconclusive: 29.1 µM [cytotoxic, single point] | –
30 | COc1cc(OC)cc(C(=O)N2CCN(c3ccccc3F)CC2)c1 | inconclusive: 29.1 µM [cytotoxic, single point] | –
31 | CC(=O)C(C)Oc1ccc2c3c(c(=O)oc2c1C)CCCC3 (stereo not drawn) | inconclusive: 5.8 µM [cytotoxic, partial curve, poor fit] | –
32 | Oc1cc(Nc2ccccc2)cc2cccnc12 | inconclusive: 18.4 µM [cytotoxic, single point] | –
33 | Cc1nc(-c2cccc(NC(=O)c3ccc(-n4nccc4C)cc3)c2)cs1 | inconclusive: 29.1 µM [cytotoxic, single point] | –
34 | Cc1ccc(CN2CCC2(C)C(=O)NC2CCc3ccccc32)cc1 (stereo not drawn) | – | inactive: 0%
35 | Fc1ccc(-n2ncc3c(N4CCN(c5ccccc5F)CC4)ncnc32)cc1 | inconclusive: 2.59 µM [cytotoxic, partial curve, poor fit] | –
36 | O=C(O)CN1CCNCCN(CC(=O)O)CCNCC1 | inconclusive: 20.6 µM [cytotoxic, single point] | –
37 | Fc1ccc(N2CCN(c3ccc4c(C(F)(F)F)cc(C(F)(F)F)nc4n3)CC2)cc1 | – | inactive: -5.89%
38 | COc1cc2cc(CN(CCc3ccccc3C)C(=S)NCCCN(C)C)c(=O)[nH]c2cc1OC | inconclusive: 29.1 µM [cytotoxic, single point] | –
39 | N#C/C(=C/c1ccc(O)c([N+](=O)[O-])c1)C(=O)Nc1ccccc1 | active: 18.4 µM | –
40 | COc1cccc(C(=O)Nc2ncc3c(n2)CC(C)(C)CC3=O)c1 | inconclusive: 18.4 µM [cytotoxic, single point] | –
41 | Clc1cccc(-c2cc3nc(NCCOc4ccccc4)ccn3n2)c1 | inconclusive: 16.4 µM [cytotoxic, single point] | –
42 | C/C=C(\NNC(C)=O)c1ccc(O)cc1 | – | inactive: -0.0932%
43 | O=C(Nc1ccccn1)C1CCN(c2ncnc3c2nc2n3CCCCC2)CC1 | – | inactive: -0.967%

Single records (already shown):
Cc1ccc(Cc2c(-c3ccc(C)cc3)nc3cc(C)ccn23)cc1 is listed with Potency: inconclusive: 25.9 µM [cytotoxic, partial curve, poor fit]
CN(C)c1cc[n+](CC(=O)Nc2ccc(OC(F)F)cc2)cc1 is listed with Potency: active: 4.11 µM
